Source: article PMC9355564, “A network of cytosolic (co)chaperones promotes the biogenesis of mitochondrial signal-anchored outer membrane proteins” (eLife, 2022)
These are yes or no findings as the source states them, for the method shown. In cells and extracts the contact can be indirect. A yes stands for co-enrichment or nearness to the bait. Other partners may have been found.

Protein sequences, listed by entry. Tags and fused reporters are not part of them. Residues count along the entry.
UniProt P0CS90, residues 24-654: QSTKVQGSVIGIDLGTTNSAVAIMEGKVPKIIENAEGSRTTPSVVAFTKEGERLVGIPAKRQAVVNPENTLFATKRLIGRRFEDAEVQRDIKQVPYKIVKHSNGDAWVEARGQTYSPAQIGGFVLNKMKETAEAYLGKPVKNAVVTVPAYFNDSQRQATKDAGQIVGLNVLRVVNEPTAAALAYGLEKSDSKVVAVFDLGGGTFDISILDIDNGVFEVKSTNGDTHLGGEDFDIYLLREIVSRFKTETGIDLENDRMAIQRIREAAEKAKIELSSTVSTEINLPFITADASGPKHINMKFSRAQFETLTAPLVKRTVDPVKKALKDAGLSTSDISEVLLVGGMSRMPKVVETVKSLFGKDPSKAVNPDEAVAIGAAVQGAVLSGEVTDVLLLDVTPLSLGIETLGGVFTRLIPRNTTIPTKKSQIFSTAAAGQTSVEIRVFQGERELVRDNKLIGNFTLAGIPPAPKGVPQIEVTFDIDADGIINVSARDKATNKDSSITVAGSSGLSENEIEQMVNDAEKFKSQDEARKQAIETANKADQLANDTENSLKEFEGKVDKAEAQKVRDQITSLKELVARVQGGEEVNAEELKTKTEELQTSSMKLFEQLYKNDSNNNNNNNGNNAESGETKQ
UniProt P22202: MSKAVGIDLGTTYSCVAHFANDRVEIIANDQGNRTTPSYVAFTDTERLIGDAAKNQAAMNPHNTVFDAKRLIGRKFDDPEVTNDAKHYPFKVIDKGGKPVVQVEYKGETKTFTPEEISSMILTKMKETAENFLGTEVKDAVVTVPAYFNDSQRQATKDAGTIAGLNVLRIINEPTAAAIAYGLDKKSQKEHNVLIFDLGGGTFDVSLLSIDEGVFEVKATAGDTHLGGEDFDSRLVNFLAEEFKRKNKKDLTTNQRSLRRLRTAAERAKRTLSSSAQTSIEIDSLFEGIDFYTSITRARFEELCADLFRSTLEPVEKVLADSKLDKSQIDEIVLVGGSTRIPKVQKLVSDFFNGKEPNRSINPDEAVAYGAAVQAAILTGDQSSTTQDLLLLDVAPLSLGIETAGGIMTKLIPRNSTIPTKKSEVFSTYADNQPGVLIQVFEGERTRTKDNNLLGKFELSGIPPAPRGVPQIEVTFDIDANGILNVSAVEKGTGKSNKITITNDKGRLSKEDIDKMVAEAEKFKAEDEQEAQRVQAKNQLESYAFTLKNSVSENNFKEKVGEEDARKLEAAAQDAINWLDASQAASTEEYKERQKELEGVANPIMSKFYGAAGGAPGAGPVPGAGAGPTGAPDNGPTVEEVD

T1: Mcr1-3HA (full length) (S. cerevisiae) (UniProt P36060)
T1 sequence: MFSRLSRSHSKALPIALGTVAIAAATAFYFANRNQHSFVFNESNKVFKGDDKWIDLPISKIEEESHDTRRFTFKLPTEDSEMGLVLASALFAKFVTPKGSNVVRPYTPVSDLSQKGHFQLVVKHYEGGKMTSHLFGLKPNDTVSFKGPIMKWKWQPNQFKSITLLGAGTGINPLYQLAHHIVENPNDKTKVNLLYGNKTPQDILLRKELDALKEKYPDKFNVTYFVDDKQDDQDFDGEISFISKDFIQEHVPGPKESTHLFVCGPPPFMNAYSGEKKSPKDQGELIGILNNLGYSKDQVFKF

T2: Msp1-3HA (full length) (S. cerevisiae) (UniProt P28737)
T2 sequence: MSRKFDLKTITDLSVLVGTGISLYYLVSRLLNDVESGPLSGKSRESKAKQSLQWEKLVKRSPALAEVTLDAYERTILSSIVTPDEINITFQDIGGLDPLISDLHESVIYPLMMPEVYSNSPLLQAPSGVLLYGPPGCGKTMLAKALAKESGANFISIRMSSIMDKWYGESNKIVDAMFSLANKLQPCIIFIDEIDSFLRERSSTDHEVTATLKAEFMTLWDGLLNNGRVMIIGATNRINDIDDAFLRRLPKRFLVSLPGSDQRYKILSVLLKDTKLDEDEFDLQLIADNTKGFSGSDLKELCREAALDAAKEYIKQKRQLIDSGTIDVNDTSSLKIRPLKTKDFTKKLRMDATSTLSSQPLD

B1: Sse1 (protein, UniProt P32589 1-693)
chain: MSTPFGLDLGNNNSVLAVARNRGIDIVVNEVSNRSTPSVVGFGPKNRYLGETGKNKQTSNIKNTVANLKRIIGLDYHHPDFEQESKHFTSKLVELDDKKTGAEVRFAGEKHVFSATQLAAMFIDKVKDTVKQDTKANITDVCIAVPPWYTEEQRYNIADAARIAGLNPVRIVNDVTAAGVSYGIFKTDLPEGEEKPRIVAFVDIGHSSYTCSIMAFKKGQLKVLGTACDKHFGGRDFDLAITEHFADEFKTKYKIDIRENPKAYNRILTAAEKLKKVLSANTNAPFSVESVMNDVDVSSQLSREELEELVKPLLERVTEPVTKALAQAKLSAEEVDFVEIIGGTTRIPTLKQSISEAFGKPLSTTLNQDEAIAKGAAFICAIHSPTLRVRPFKFEDIHPYSVSYSWDKQVEDEDHMEVFPAGSSFPSTKLITLNRTGDFSMAASYTDITQLPPNTPEQIANWEITGVQLPEGQDSVPVKLKLRCDPSGLHTIEEAYTIEDIEVEEPIPLPEDAPEDAEQEFKKVTKTVKKDDLTIVAHTFGLDAKKLNELIEKENEMLAQDKLVAETEDRKNTLEEYIYTLRGKLEEEYAPFASDAEKTKLQGMLNKAEEWLYDEGFDSIKAKYIAKYEELASLGNIIRGRYLAKEEEKKQAIRSKQEASQMAAMAEKLAAQRKAEAEKKEEKKDTEGDVDMD
B2: Lhs1 (protein, UniProt P36016 21-881)
chain: AVLGVDYGQQNIKAIVVSPQAPLELVLTPEAKRKEISGLSIKRLPGYGKDDPNGIERIYGSAVGSLATRFPQNTLLHLKPLLGKSLEDETTVTLYSKQHPGLEMVSTNRSTIAFLVDNVEYPLEELVAMNVQEIANRANSLLKDRDARTEDFVNKMSFTIPDFFDQHQRKALLDASSITTGIEETYLVSEGMSVAVNFVLKQRQFPPGEQQHYIVYDMGSGSIKASMFSILQPEDTTQPVTIEFEGYGYNPHLGGAKFTMDIGSLIENKFLETHPAIRTDELHANPKALAKINQAAEKAKLILSANSEASINIESLINDIDFRTSITRQEFEEFIADSLLDIVKPINDAVTKQFGGYGTNLPEINGVILAGGSSRIPIVQDQLIKLVSEEKVLRNVNADESAVNGVVMRGIKLSNSFKTKPLNVVDRSVNTYSFKLSNESELYDVFTRGSAYPNKTSILTNTTDSIPNNFTIDLFENGKLFETITVNSGAIKNSYSSDKCSSGVAYNITFDLSSDRLFSIQEVNCICQSENDIGNSKQIKNKGSRLAFTSEDVEIKRLSPSERSRLHEHIKLLDKQDKERFQFQENLNVLESNLYDARNLLMDDEVMQNGPKSQVEELSEMVKVYLDWLEDASFDTDPEDIVSRIREIGILKKKIELYMDSAKEPLNSQQFKGMLEEGHKLLQAIETHKNTVEEFLSQFETEFADTIDNVREEFKKIKQPAYVSKALSTWEETLTSFKNSISEIEKFLAKNLFGEDLREHLFEIKLQFDMYRTKLEEKLRLIKSGDESRLNEIKKLHLRNFRLQKRKEEKLKRKLEQEKSRNNNETESTVINSADDKTTIVNDKTTESNPSSEEDILHDEL
B3: Snl1 (protein, UniProt P40548 1-159)
chain: MSHNAMEHWKSKLSKTSTSTYVLLAVIAVVFLVTIRRPNGSKGKSSKKRASKKNKKGKNQFEKAPVPLTLEEQIDNVSLRYGNELEGRSKDLINRFDVEDEKDIYERNYCNEMLLKLLIELDSIDLINVDESLRRPLKEKRKGVIKEIQAMLKSLDSLK
B4: Zuo1 (protein, UniProt P32527 1-433)
chain: MFSLPTLTSDITVEVNSSATKTPFVRRPVEPVGKFFLQHAQRTLRNHTWSEFERIEAEKNVKTVDESNVDPDELLFDTELADEDLLTHDARDWKTADLYAAMGLSKLRFRATESQIIKAHRKQVVKYHPDKQSAAGGSLDQDGFFKIIQKAFETLTDSNKRAQYDSCDFVADVPPPKKGTDYDFYEAWGPVFEAEARFSKKTPIPSLGNKDSSKKEVEQFYAFWHRFDSWRTFEFLDEDVPDDSSNRDHKRYIERKNKAARDKKKTADNARLVKLVERAVSEDPRIKMFKEEEKKEKERRKWEREAGARAEAEAKAKAEAEAKAKAESEAKANASAKADKKKAKEAAKAAKKKNKRAIRNSAKEADYFGDADKATTIDEQVGLIVDSLNDEELVSTADKIKANAAGAKEVLKESAKTIVDSGKLPSSLLSYFV

The molecules below were run against T1, Mcr1-3HA (full length) (S. cerevisiae) (assay: affinity purification with mass spectrometry; eluates of anti-HA pull-downs of Msp1 or Mcr1 translated in yeast extract, against a mock pull-down without synthesized protein; nanoLC-MS/MS).

| binding | Molecule |
| --- | --- |
| binds | Ssc1 (from UniProt P0CS90 24-654) |
| binds | Ssa4 (from UniProt P22202 1-642) |
| binds | B1 |
| binds | B2 |
| binds | B3 |
| binds | B4 |

The molecules below were run against T2, Msp1-3HA (full length) (S. cerevisiae) in the same assay as above.

| binding | Molecule |
| --- | --- |
| binds | Ssc1 (from UniProt P0CS90 24-654) |
| binds | Ssa4 (from UniProt P22202 1-642) |
| binds | B1 |
| binds | B2 |
| binds | B3 |
| binds | B4 |
